# Test results reported in publication PMC5996148.
# Protein sequences, listed by entry. Tags and fused reporters are not part of them.
# UniProt Q16143, whole entry: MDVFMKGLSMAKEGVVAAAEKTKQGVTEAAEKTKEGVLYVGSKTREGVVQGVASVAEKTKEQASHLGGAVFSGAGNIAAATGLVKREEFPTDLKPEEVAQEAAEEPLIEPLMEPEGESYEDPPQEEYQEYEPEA
# Some of the results follow. For some of these results: The exact form of the protein is not confirmed.
# What was measured:
# Experiment in all cases: protein microarray (ProtoArray v5.0), streptavidin-Alexa Fluor 647
# Settings in all cases: 3'-biotin; 20 mM Tris (pH 7.5), 5 mM MgCl2, 100 mM KCl, 0.1% Tween-20, A/T-rich and random oligonucleotide blockers; temperature not stated; high values mean tight binding
# SMAD1 (human) = system: SMAD1 (human)
# SMCP (human) = system: SMCP (human)
# SMPD3 (human) = system: SMPD3 (human)
# SMR3B (human) = system: SMR3B (human)
# SMUG1 (human) = system: SMUG1 (human)
# SNAPC5 = target: T1, SNAPC5 (UniProt O75971)
# T1 sequence: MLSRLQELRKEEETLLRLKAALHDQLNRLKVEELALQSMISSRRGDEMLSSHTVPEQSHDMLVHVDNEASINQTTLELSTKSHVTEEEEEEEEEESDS
# SNCA (human) = system: SNCA (human)
# SNCB = SNCB (UniProt Q16143)
# SNX19 (human) = system: SNX19 (human)
# SOD1 (human) = system: SOD1 (human)
sequence,measurement,setting,value
GGGGACAGGGGTATGGGGAGGGG [G4-3 biotinylated (CtG)],binding signal,SMAD1 (human),-0.331 z-score
same,binding signal,SMCP (human),-0.327 z-score
same,binding signal,SMPD3 (human),-0.319 z-score
same,binding signal,SMR3B (human),-0.314 z-score
same,binding signal,SMUG1 (human),-0.313 z-score
same,binding signal,SNAPC5,-0.331 z-score
same,binding signal,SNCA (human),-0.328 z-score
same,binding signal,SNCB,-0.342 z-score
same,binding signal,SNX19 (human),-0.321 z-score
same,binding signal,SOD1 (human),-0.334 z-score

# Two successive records from above, for reference:
sequence,measurement,setting,value
GGGGACAGGGGTATGGGGAGGGG [G4-3 biotinylated (CtG)],binding signal,SMCP (human),-0.327 z-score
same,binding signal,SMPD3 (human),-0.319 z-score
